Reference: US20110217302A1
These are yes or no findings as the source states them, for the method shown. Some binding calls cover weakened binding; strength is not graded here.

Sequences of proteins named here, by UniProt entry; tags and fusion partners are left off. Residues count along the entry.
UniProt P07766, residues 23-207: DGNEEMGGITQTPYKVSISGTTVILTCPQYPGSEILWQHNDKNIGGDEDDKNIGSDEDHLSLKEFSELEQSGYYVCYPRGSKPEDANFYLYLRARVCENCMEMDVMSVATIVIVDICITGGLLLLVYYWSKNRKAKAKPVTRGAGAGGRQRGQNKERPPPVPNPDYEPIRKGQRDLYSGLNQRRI

Target: human CD3ε (human) (UniProt P07766)
Assay: flow cytometry on CD3+ Jurkat cells (read-out of the PK assay)

B1: BC3-HM1 (SEQ ID NO:84) (protein)
chain: QVQLQQSAAELARPGASVKMSCKASGYTFTRYTMQWVKQRPGQGLEWIGYINPSSGYIGYSQKFKDKTTLTADKSSSTAYMQLSSLTSEDSAVYYCARSKVYYDYDVYSMDYWGQGTSVTVSSGGGGSGGGGSGGGGSAQQIILTQSPAIMSASPGEKVTMTCSASSSVSYMHWYQQKSGTSPKRWIYDTSKLASGVPARFSGSGSGTSYSLTISSMEAEDAATYYCQQWSSNPLTFGAGTKLELKRTEPKSCDKTHTCPPCPDQDTAIRVFAIPPSFASIFLTKSTKLTCLVTDLTTYDSVTISWTRQNGEAVKTHTNISESHPNATFSAVGEASICEDDWNSGERFTCTVTHTDLPSPLKQTISRPKGQPREPQVYTLPPSRDELTKNQVSLTCLVKGFYPSDIAVEWESNGQPENNYKTTPPVLDSDGSFFLYSKLTVDKSRWQQGNVFSCSVMHEALHNHYTQKSLSLSPGKTGLNDIFEAQKIEWHEDYKDDDDKDYKDDDDKDYKDDDDKHHHHHH
With B1 the binding was “binds”.
